Reference: publication PMC7949131
No constants are given. Whether binding was seen depends on the method and setting. Binding seen in cells or lysates may run through a third protein. Some results given as binding are weak or reduced against the parent protein; the word gives no strength.

Amino acid sequences for entries named in this document (tags omitted).
UniProt P14600: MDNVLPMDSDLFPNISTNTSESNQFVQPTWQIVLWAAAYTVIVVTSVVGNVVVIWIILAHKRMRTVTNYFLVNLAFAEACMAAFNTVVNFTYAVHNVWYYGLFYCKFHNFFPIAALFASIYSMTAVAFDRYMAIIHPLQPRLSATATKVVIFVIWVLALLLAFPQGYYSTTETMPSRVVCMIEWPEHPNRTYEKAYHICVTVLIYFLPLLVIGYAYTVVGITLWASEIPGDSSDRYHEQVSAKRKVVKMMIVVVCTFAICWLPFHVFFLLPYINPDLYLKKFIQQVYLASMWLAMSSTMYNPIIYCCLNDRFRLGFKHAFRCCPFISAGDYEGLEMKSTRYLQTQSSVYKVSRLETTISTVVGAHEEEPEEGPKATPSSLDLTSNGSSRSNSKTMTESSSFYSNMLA
UniProt P29067: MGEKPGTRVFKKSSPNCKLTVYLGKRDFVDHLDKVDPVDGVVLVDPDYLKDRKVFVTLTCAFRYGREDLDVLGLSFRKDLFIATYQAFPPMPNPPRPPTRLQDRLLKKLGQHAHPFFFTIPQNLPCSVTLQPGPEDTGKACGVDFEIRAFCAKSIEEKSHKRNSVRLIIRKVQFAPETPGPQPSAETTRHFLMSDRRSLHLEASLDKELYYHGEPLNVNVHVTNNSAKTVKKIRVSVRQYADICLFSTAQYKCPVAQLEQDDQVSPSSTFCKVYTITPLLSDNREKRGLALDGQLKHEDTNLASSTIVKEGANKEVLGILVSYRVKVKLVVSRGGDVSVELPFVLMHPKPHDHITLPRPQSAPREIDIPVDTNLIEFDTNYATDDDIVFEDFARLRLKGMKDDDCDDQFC

Molecular target: NK1R-RLuc8 (rat) (UniProt P14600)
Assay: FRET or BRET; BRET in live HEK293 cells cotransfected with 1 μg NK1R-RLuc8 and 4 μg β-arrestin 2-YFP; 1 nM SP added after baseline, read every 1 min for 25 min; coelenterazine h 5 μM, HBSS

β-arrestin 2-YFP (from UniProt P29067 1-410)
binding: binds
